# Taken from: PubChem BioAssay AID1224830 (NIAID, 2016)
# Aim: 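Regulators of TLR4 signalling towards TNF-alpha in macrophage-like cells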 (primary screen)
# Cell system: human THP-1 monocytic leukaemia cells, TNF dual-luciferase reporter clone, PMA-differentiated to macrophage-like cells
# Reagents: siRNA pool against human genes, 50 nM
# Time to read-out: LPS for 4 h, given about 3 days after siRNA transfection
# Treatment: bacterial LPS (TLR4 ligand), 10 ng/ml
# Measurement: 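TNF firefly reporter luminescence divided by renilla, normalised to the plate median, then turned into a robust z-score for each replicate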
# Direction: TNF reporter robust z-score: higher = stronger TNF reporter response to LPS
# Rule for the call: 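a well is active when its z-score exceeds 2.8 or falls below -1.5; control wells carry no call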
# The deposit covers about 18,000 reagents; shown is a random part of them. About 2,900 of all reagents (16%) count as active. 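Calls are made per well; low scores hint the gene aids the LPS response, high scores that it dampens it.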 A number with no mark means an inactive call. Repeated entries: four replicate wells of each siRNA pool.
gene,TNF reporter robust z-score
AIRE (GeneID 326),-0.18
AIRE (GeneID 326),-1.22
AIRE (GeneID 326),-1.19
AIRE (GeneID 326),-1.89 (active)
SFTPA2B (retired record) (GeneID 6436),-0.39
SFTPA2B (retired record) (GeneID 6436),-0.99
SFTPA2B (retired record) (GeneID 6436),-0.62
SFTPA2B (retired record) (GeneID 6436),1.22
INS-IGF2 (GeneID 723961),0.76
INS-IGF2 (GeneID 723961),0.89
INS-IGF2 (GeneID 723961),0.9
INS-IGF2 (GeneID 723961),0.46
F8A2 (GeneID 474383),-1.34
F8A2 (GeneID 474383),0.68
F8A2 (GeneID 474383),0.55
F8A2 (GeneID 474383),-0.61
CACNG1 (GeneID 786),0.01
CACNG1 (GeneID 786),0.02
CACNG1 (GeneID 786),-1
CACNG1 (GeneID 786),-0.19
ZFAND2A (GeneID 90637),-0.78
ZFAND2A (GeneID 90637),-0.3
ZFAND2A (GeneID 90637),-0.67
ZFAND2A (GeneID 90637),-0.41
ATP5F1E (GeneID 514),-0.41
ATP5F1E (GeneID 514),-0.94
ATP5F1E (GeneID 514),-0.26
ATP5F1E (GeneID 514),-0.8
PRR13 (GeneID 54458),1.37
PRR13 (GeneID 54458),0.8
PRR13 (GeneID 54458),1.31
PRR13 (GeneID 54458),1.52
DNAJC8 (GeneID 22826),-0.93
DNAJC8 (GeneID 22826),-0.25
DNAJC8 (GeneID 22826),0
DNAJC8 (GeneID 22826),-0.87
RAC1 (GeneID 5879),2.38
RAC1 (GeneID 5879),2.45
RAC1 (GeneID 5879),0.95
RAC1 (GeneID 5879),1.53
DNAJA2 (GeneID 10294),0.18
DNAJA2 (GeneID 10294),-0.39
DNAJA2 (GeneID 10294),-0.29
DNAJA2 (GeneID 10294),0
KANSL2 (GeneID 54934),-0.36
KANSL2 (GeneID 54934),-0.13
KANSL2 (GeneID 54934),-0.47
KANSL2 (GeneID 54934),-0.04
PLS1 (GeneID 5357),-0.51
PLS1 (GeneID 5357),-0.15
PLS1 (GeneID 5357),0.57
PLS1 (GeneID 5357),0.37
GSE1 (GeneID 23199),-0.03
GSE1 (GeneID 23199),-0.36
GSE1 (GeneID 23199),0.12
GSE1 (GeneID 23199),-0.51
ADGRE2 (GeneID 30817),-0.26
ADGRE2 (GeneID 30817),0.22
ADGRE2 (GeneID 30817),0.2
ADGRE2 (GeneID 30817),-0.05
TRIM28 (GeneID 10155),-1.2
TRIM28 (GeneID 10155),0.64
TRIM28 (GeneID 10155),-0.3
TRIM28 (GeneID 10155),-0.08
MAT2A (GeneID 4144),-1.98 (active)
MAT2A (GeneID 4144),-1.33
MAT2A (GeneID 4144),-1.52 (active)
MAT2A (GeneID 4144),-1.47
MIR22HG (GeneID 84981),0.2
MIR22HG (GeneID 84981),-0.43
MIR22HG (GeneID 84981),-0.22
MIR22HG (GeneID 84981),-0.35
PRSS38 (GeneID 339501),-1.3
PRSS38 (GeneID 339501),-1.65 (active)
PRSS38 (GeneID 339501),-1.11
PRSS38 (GeneID 339501),-1.17
DAXX (GeneID 1616),6.1 (active)
DAXX (GeneID 1616),1.53
DAXX (GeneID 1616),0.92
DAXX (GeneID 1616),2.84 (active)
TRIP10 (GeneID 9322),-0.15
TRIP10 (GeneID 9322),0.89
TRIP10 (GeneID 9322),0.6
TRIP10 (GeneID 9322),1.67
RHOBTB3 (GeneID 22836),-0.42
RHOBTB3 (GeneID 22836),-0.53
RHOBTB3 (GeneID 22836),0.41
RHOBTB3 (GeneID 22836),0.7
FCN2 (GeneID 2220),-0.17
FCN2 (GeneID 2220),0
FCN2 (GeneID 2220),0.24
FCN2 (GeneID 2220),-0.81
ASAH2B (GeneID 653308),0.51
ASAH2B (GeneID 653308),0.44
ASAH2B (GeneID 653308),0.82
ASAH2B (GeneID 653308),0.28
RGS11 (GeneID 8786),-0.39
RGS11 (GeneID 8786),0.48
RGS11 (GeneID 8786),-0.86
RGS11 (GeneID 8786),1.02
PROCR (GeneID 10544),-0.56
PROCR (GeneID 10544),0.24
PROCR (GeneID 10544),-0.17
PROCR (GeneID 10544),-0.98
DEGS2 (GeneID 123099),0.02
DEGS2 (GeneID 123099),0.16
DEGS2 (GeneID 123099),-0.06
DEGS2 (GeneID 123099),0.1
ANKRD40 (GeneID 91369),-0.12
ANKRD40 (GeneID 91369),-0.36
ANKRD40 (GeneID 91369),-0.6
ANKRD40 (GeneID 91369),0.18

Reformatted: 14 of the entries above
{"gene":"GSE1 (GeneID 23199)","TNF reporter robust z-score":-0.03}
{"gene":"GSE1 (GeneID 23199)","TNF reporter robust z-score":-0.36}
{"gene":"GSE1 (GeneID 23199)","TNF reporter robust z-score":0.12}
{"gene":"GSE1 (GeneID 23199)","TNF reporter robust z-score":-0.51}
{"gene":"ADGRE2 (GeneID 30817)","TNF reporter robust z-score":-0.26}
{"gene":"ADGRE2 (GeneID 30817)","TNF reporter robust z-score":0.22}
{"gene":"ADGRE2 (GeneID 30817)","TNF reporter robust z-score":0.2}
{"gene":"ADGRE2 (GeneID 30817)","TNF reporter robust z-score":-0.05}
{"gene":"TRIM28 (GeneID 10155)","TNF reporter robust z-score":-1.2}
{"gene":"TRIM28 (GeneID 10155)","TNF reporter robust z-score":0.64}
{"gene":"TRIM28 (GeneID 10155)","TNF reporter robust z-score":-0.3}
{"gene":"TRIM28 (GeneID 10155)","TNF reporter robust z-score":-0.08}
{"gene":"MAT2A (GeneID 4144)","TNF reporter robust z-score":"-1.98 (active)"}
{"gene":"MAT2A (GeneID 4144)","TNF reporter robust z-score":-1.33}
